Consider 11 molecules from publication doi:10.1101/384354.

Chains of the proteins cited; added tags and fusions are not shown.
UniProt Q9CWH6: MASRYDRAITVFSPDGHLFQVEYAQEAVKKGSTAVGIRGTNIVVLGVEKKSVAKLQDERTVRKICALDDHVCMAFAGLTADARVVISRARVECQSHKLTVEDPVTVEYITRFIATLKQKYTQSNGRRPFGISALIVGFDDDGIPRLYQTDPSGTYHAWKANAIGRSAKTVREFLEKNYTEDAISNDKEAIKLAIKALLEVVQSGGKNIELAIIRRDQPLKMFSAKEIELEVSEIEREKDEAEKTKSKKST
UniProt P11440: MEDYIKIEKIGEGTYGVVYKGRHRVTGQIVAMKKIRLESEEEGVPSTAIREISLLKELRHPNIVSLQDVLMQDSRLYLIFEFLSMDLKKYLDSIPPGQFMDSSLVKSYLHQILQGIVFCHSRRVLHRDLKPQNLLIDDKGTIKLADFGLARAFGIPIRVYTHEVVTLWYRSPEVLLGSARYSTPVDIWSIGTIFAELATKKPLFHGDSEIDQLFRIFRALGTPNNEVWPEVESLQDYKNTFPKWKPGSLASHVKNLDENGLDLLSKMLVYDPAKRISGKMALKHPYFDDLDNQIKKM
UniProt Q9JMB7: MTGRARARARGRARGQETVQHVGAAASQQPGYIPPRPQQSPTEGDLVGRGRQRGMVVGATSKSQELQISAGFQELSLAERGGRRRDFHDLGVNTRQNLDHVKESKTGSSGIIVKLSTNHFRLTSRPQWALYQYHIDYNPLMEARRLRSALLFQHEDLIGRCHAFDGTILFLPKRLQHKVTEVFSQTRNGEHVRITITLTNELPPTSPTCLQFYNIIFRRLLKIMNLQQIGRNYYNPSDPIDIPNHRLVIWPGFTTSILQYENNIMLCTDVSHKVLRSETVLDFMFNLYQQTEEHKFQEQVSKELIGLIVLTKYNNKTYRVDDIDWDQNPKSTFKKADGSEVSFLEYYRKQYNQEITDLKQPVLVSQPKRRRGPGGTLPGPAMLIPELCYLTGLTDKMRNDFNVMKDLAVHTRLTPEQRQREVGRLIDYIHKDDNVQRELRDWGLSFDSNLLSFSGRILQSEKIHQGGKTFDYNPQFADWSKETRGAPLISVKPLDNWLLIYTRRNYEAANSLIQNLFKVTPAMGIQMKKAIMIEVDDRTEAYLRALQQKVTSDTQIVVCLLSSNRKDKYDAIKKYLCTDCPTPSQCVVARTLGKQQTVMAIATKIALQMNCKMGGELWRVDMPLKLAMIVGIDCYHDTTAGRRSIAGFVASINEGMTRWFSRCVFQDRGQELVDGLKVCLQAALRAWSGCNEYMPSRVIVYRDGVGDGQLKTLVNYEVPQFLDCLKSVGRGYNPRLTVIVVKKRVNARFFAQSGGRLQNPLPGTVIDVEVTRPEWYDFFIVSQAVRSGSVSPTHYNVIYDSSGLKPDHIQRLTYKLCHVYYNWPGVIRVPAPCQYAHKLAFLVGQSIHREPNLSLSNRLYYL
UniProt Q3TUU5: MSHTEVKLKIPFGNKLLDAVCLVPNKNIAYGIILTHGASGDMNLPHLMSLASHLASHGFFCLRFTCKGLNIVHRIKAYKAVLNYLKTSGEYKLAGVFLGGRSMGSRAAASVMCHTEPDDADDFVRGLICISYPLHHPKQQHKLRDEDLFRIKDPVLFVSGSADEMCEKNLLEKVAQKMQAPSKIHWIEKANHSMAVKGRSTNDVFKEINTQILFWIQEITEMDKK

Where two headings read alike, the source gives them in different places. Results are given in words; binding and its absence hold for the method and conditions named. In cells and extracts the contact can be indirect. Some binding calls cover weakened binding; strength is not graded here. For some assays here: Where a sequence is shown, tags or fusion partners need not be part of it.

What all share (assay): co-IP
The target in experiment [1] is Flag-PSMA8 (mouse) (UniProt Q9CWH6).
Experiment [2] addresses GFP-CDK1 (mouse) (UniProt P11440).
The target in experiment [3] is Flag-PSMA8 (mouse) (UniProt Q9CWH6). This is another data set of the same source.

As to “GFP-CDK1 (from UniProt P11440 1-297) (enzyme)”, the binding result in experiment [1] is “binds”.
For the molecule GFP-PIWIL1 (from UniProt Q9JMB7 1-862), in experiment [1], the binding result is on record as “no binding”.
Same read-out and setting: the entry for GFP-TEX30 (from UniProt Q3TUU5 1-225) is “no binding”.
As to Flag-PSMA8 (from UniProt Q9CWH6 1-250), the binding result in experiment [2] is reported as “binds”.

B1: GFP-TEX12 (protein, UniProt Q9CR81 1-123)
chain: MMANHLVKPDSRNCKRARELEPQVSDSPQVSSLGKSESSLSEASGLFYKEEALEKDLSDMSKEINLMLSTYAKILSERAAVDASYIDEIDGLFKEANIIENFLVQKREFLKQRFTVITNTLHK
As to B1, in experiment [3], the binding entry is reported as “no binding”.

B2: GFP-SYCE1 (protein, UniProt Q9D495 1-329)
chain: MATRPQPLGMEPEGSADLLHGPEGARGQYGSTQKIEDLMDMVKKLQKVGSLEPRIEVLINRINEVQQAKKKASEELGEAQTVWDNLQKELDLLREEKVRLKDILNRKEETLRIMQLHCQEKESEAQRKHSMLQECKERISFLNSQIDKEKAKLRKLRLDFEEHLETLMSQHKDTLEFHKPEHLTKEMCVLDSSKEQLLKEEKLMKVKLEDVRQRLCALGGPEGSSSLIEGLFLRSHEAAAAMQMFKDENKKAEEFLEAAAQQHEQLQQRCHQLQQKRQRLKEELEKHGVQILAHSTQNEEDSSWRMASPKPVEVHEETAQDQERPSSRT
As for B2, the binding entry in experiment [3] is given as “no binding”.

B3: GFP-SYCE3 (protein, UniProt B5KM66 1-88)
chain: MADSDPGERSYDNMLKMLSDLNKDLEKLLEEMEKISVQATWMAYDMVVMRTNPTLAESMRRLEDAFLNCKEEMEKNWQELLTETKRKQ
In the case of B3, in experiment [3], the binding entry is on record as “binds”.

B4: GFP-SYCP1 (protein, UniProt Q62209 1-993)
chain: MEKQKPFTLFVPPRLSSSQVSAVKPQTAGGDSNYFKTANKCTEGDFGVPFTMSSRENIDKDPAFQKLSILPMLEQVANSGSCHYQEGVNDSDFENSEPMSRLYSKLYKEAEKIKKWKVSIESELKQKENKLQENRKIIEAQRKAIQELQFENEKVSLKLEEEIQENKDLIKENNATIHWCNLLKETCARSAEKTNKYEYEREETRQVYVDLNSNIEKMILAFEELRVQAENARLEMHFKLKEDHEKIQHLEEEYQKEVNNKENQVSELLIQSAEKENKMKDLTFLLEESRDKANQLEEKTKLQDENLKELSEKKDHLTSELEDIKMSMQRSMSTQKALEEDLQIATKTISQLTEVKEAQMEELNKAKTTHSFVVTELKATTCTLEELLRTEQQRLEKNEDQLKLITVELQKKSNELEEMTKFKNNKEVELEELKNILAEDQKLLDEKKQVEKLAEELQEKEQELTFLLETREKEVHDLQEQVTVTKTSEQHYLKQVEEMKTELEKEKLKNTELTASCDMLLLENKKFVQEASDMALELKKHQEDIINCKKQEERLLKQIENLEEKEMHLRDELESVRKEFIQQGDEVKCKLDKSEENARSIECEVLKKEKQMKILESKCNNLKKQVENKSKNIEELHQENKTLKKKSSAEIKQLNAYEIKVSKLELELESTKQRFEEMTNNYQKEIENKKISEGKLLGEVEKAKATVDEAVKLQKEIDLRCQHKIAEMVALMEKHKHQYDKIVEERDSELGLYKNREQEQSSAKIALETELSNIRNELVSLKKQLEIEKEEKEKLKMAKENTAILKDKKDKKIQASLLESPEATSWKFDSKTTPSQNISRLSSSMDSGKSKDNRDNLRASAKSILPTTVTKEYTVKTPTKKSIYQRENKYIPTGGSNKKRKTAFEFDVNSDSSETADLLSLVSEEDVSNRLYDNNPPDSHLLVKTPKQTPLSLSTPASFMKFGSLKKMREDRWTTIAKIDRKRRLKEAEKLFS
Turning to B4, the binding entry in experiment [3] is “binds”.

B5: GFP-SYCE2 (protein, UniProt Q505B8 1-171)
chain: MERHGVAAPPVELKDQEPPAIVESGEHRQSENHEETPGSVAPSASCQLPGPFSSLDSSIETLKKKAQELIENINESRQKDHALMTNFRDSLKMKVSDLTEKLEERMYQVYSHHSKIIQERLQEFTQKMAKINHLEMELKQVCQTVETVYKDLCVQSEVPTCEEQNYKDGEC
For B5, in experiment [3], the binding result is given as “no binding”.

B6: Flag-SIX6OS1 (protein, UniProt Q9CTN5 1-574)
chain: MNDNLFVSLDRLLLEFVFQYEQDISIKEDTIQRINKCLESIKENKANVSKLREAINKVDEDIAFHYKHSKEIKDSCSNWKPTCDVFHKHEDYIKDQLTAYQETNEKDKKMYHDYICQYEDVLKQYQLKYSETRFSCKYYEKKKEHEEIKNRVLACTEQLQLNETILMKFLVPAPFPSLTKWTLYVVNLRYRTQDILKRANNFTKRSFELEKEADDMEIEINSLNKMARLFESKTFSEALDEKNKNTEKRKEFEERIFEKDEQVSNRSSQNSQLLLPCESQKFVRNMNSSEARVTDKKEESSANQSKFVRSDVRQKENNPQIFNDSGMDSNSKSSHIPAVKSSQGFMQFRLNQPNYNQRIEKEHIDAECGDKETVRQVRESKCSTQALYIEHFGKSIENNSVEEERDENFPQTPETPSFLRTPEALKTPESMEKMQFPKSPFFEITKNATSEGHKQKDSPGFSFLMSYTSRSPGLNLFDSSVSDSEISSDQFNEHYSAVNLNPSSSQQGIGNLFGKSEGEDAFTFSFSSDSSHTFGAGKDDFSFPFSFEQDPSTMTSSSSKDFSSSQNKTQFMFF
For B6, the binding entry in experiment [3] is “binds”.

B7: TRIP13-GFP (protein, UniProt Q3UA06 1-432)
chain: MDEAVGDLKQALPCVAESPAVHVEVLQRSGSTAKKEDIKSSVYRLLNRHNIVFGDYVWTEFDDPFLSRNVQSVSIVDTELKAKDPQPIDLSACTIALHIFQLNEEGPSSENLDEETENIIAASHWVLPAAEFHGLWDSLVYDVEVKSHLLDYVMTTVLFSDKNVDSNLITWNRVVLLHGPPGTGKTSLCKALAQKLTIRLSSRYRYGQLIEINSHSLFSKWFSESGKLVTKMFQKIQDLIDDKEALVFVLIDEVESLTAARNACRAGAEPSDAIRVVNAVLTQIDQIKRHSNVVILTTSNITEKIDVAFVDRADIKQYIGPPSAAAIFKIYLSCLEELMKCQIIYPRQQLLTLRELEMIGFIENNVSKLSLLLSEISRKSEGLSGRVLRKLPFLAHALYIQAPSVTIEGFLQALSLAVDKQFEEKKKLSAYV
With B7, the binding entry in experiment [3] is on record as “binds”.
